Measurements from patent US20200292534A1.
No constants are given. Whether binding was seen depends on the method and setting. Some entries that bind do so weakly or less than the wild type. Values belong to the binder of their own block, whether it stands above or below them.

Target: NLpoly11S
Assay: spectral scan of luminescence, purified NLpoly11S + peptide

binding: binds
B1: PBI-5436 (peptide)
peptide: GVTGWRLCERILA
modifications: fluorophore conjugated (named Fluorophore-NLPep1); dye and linker not described

binding: binds
B2: PBI-5434 (peptide)
peptide: GVTGWRLCERILA
modifications: fluorophore conjugated (named Fluorophore-NLPep1); dye and linker not described
